Laboratory results as given in PubChem BioAssay AID651640 (Broad Institute, 2012).
The campaign covered roughly 350,000 compounds. About 6,000 (1.7%) were called active. The shares of active, inactive and inconclusive entries below differ from those in the screen. Rule as the data show it: active = CPE inhibition above about 20% (passing the limit was not always enough); inconclusive = no clear call, values can overlap the other calls; tested in BHK-21 cells.

Assay: protection of cells from dengue 2 killing – plate reader, single concentration, primary screen (AID 651640);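 also: 0% = median of neutral control wells and 100% = median of positive control wells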
Conditions: DENV2-infected cells, cytopathic effect rescue, at 9.99 µM, hits give high values

Structure (SMILES)	CPE inhibition
CCCN1C[C@@H](C)[C@H](OC)CN(C)C(=O)c2ccc(NC(=O)Nc3c(C)noc3C)cc2OC[C@@H]1C	active: 22.4%
Cc1cc(C)c(OCCOCCN(C)C)c(Br)c1	inactive: -4.79%
O=C(C[C@H]1CC[C@@H](NC(=O)Nc2ccccc2F)[C@@H](CO)O1)NCc1ccc(-c2ccccc2)cc1	active: 30.2%
CO[C@H]1CN(C)C(=O)c2cc(NC(=O)C3CCCC3)ccc2OC[C@@H](C)NC[C@H]1C	inconclusive: 38.9%
O=C(c1ccc(Cl)cc1)N1CCc2c([nH]c3ccccc23)C1C(F)(F)F (configuration not stated)	active: 26.3%
Cn1cccc1/C=N/NC(=O)c1cccc(OC(F)(F)C(F)F)c1	inconclusive: 23.8%
C[C@@H]1CCCCO[C@@H](CN(C)Cc2ccc(C(F)(F)F)cc2)[C@H](C)CN([C@@H](C)CO)C(=O)c2cc(NC(=O)Nc3ccc4c(c3)OCO4)ccc2O1	inconclusive: 67.9%
Cc1oc2c(CN3CCCC(C)C3)c(O)ccc2c(=O)c1-c1ccccc1 (configuration not stated)	inconclusive: 22.4%
CC(=Nc1ccccc1O)c1sc2ccccc2c1O	inactive: -4.48%
COC(C[C@H](O)[C@@H](C)[C@H](O)COCc1ccccc1)OC	inconclusive: 29%
COc1ccc(NC(=O)N2CCCCN3[C@H](CO)[C@H](c4ccc(C#CCC(C)C)cc4)[C@@H]3C2)cc1	inconclusive: 20.4%
O=C1C2CCCCN2C(=O)N1CCCCN1CCN(c2cccc(C(F)(F)F)c2)CC1 (configuration not stated)	inconclusive: 33.7%
C[C@H]1CN([C@@H](C)CO)C(=O)c2ccccc2-c2ccccc2CO[C@H]1CN(C)S(=O)(=O)c1ccc(Cl)cc1	inconclusive: 24.9%
Cc1c(P(=S)(c2ccccc2)c2ccccc2)[n+]2ccccc2n1CCc1ccccc1	inconclusive: 40%
Cc1noc(C)c1S(=O)(=O)N(C)C[C@H]1OCCCC[C@@H](C)Oc2ccc(NS(=O)(=O)c3ccc(F)cc3)cc2C(=O)N([C@@H](C)CO)C[C@H]1C	inactive: -11.6%
COC(=O)C[C@@H]1CC[C@@H]2[C@@H](COc3ccc(NC(=O)Nc4cccc(F)c4)cc3C(=O)N2C)O1	inconclusive: 49.2%
CCOC(=O)c1c(-c2ccc(OC)cc2)csc1NC(=O)CCN1CCOCC1	inactive: -2.88%
CCCN1C[C@H](C)[C@@H](OC)CN(C)C(=O)c2ccc(NC(=O)Nc3c(C)noc3C)cc2OC[C@H]1C	active: 20.9%
COc1cccc(-c2ccc([C@H]3[C@H](CO)N4CCCCN(CC5CC5)C[C@@H]34)cc2)c1	active: 42.1%
C[C@H]1CN([C@@H](C)CO)C(=O)Cc2cc(NC(=O)Nc3ccc(F)cc3)ccc2O[C@H]1CN(C)Cc1ccc(-c2ccccc2)cc1	active: 50.2%
CC(C(=O)N1CCc2ccccc21)N1CCN(c2ccccn2)CC1 (configuration not stated)	inconclusive: 25%
O=C1C(Cl)=C(N2CCOCC2)C(=O)N1c1cccc(C(F)(F)F)c1	inactive: -1.02%
O=C([C@@H]1[C@@H](CO)[C@@H]2Cn3c(cccc3=O)[C@H]1N2C(=O)CC1CC1)N1CCCCC1	active: 148%
Cc1cc(F)cc(-c2cc(C(=O)NCC3CCCCC3)[nH]n2)c1	active: 27.1%

Sorted by length of the SMILES (largest number first): 3 of the compounds above
Structure (SMILES)	CPE inhibition
O=C(C[C@H]1CC[C@@H](NC(=O)Nc2ccccc2F)[C@@H](CO)O1)NCc1ccc(-c2ccccc2)cc1	active: 30.2%
O=C(c1ccc(Cl)cc1)N1CCc2c([nH]c3ccccc23)C1C(F)(F)F (configuration not stated)	active: 26.3%
CCOC(=O)c1c(-c2ccc(OC)cc2)csc1NC(=O)CCN1CCOCC1	inactive: -2.88%

Remaining list, next part

Structure (SMILES)	CPE inhibition
CCCNC(=O)N1CC2(CN(C(=O)c3cccc(F)c3)C2)c2c([nH]c3cc(OC)ccc23)[C@H]1CO	inactive: 10.2%
C[C@H]1CCCCO[C@@H](CN(C)Cc2ccc(C(F)(F)F)cc2)[C@@H](C)CN([C@@H](C)CO)C(=O)c2cc(NC(=O)c3ccccc3)ccc2O1	active: 23.1%
COc1ccccc1C(=O)NC(=O)COC(=O)Cc1ccc(F)cc1	inconclusive: 22.8%
Cc1ccc(N2CCN(C(=S)Nc3ccccc3)CC2)cc1	inconclusive: 20.6%
CCOc1ccc(CNc2ncc(-c3ccccc3)n2C)cc1	inconclusive: 22%
C[C@H]1CN([C@@H](C)CO)S(=O)(=O)c2ccc(-c3cncnc3)cc2O[C@H]1CN(C)C(=O)NC1CCCC1	inconclusive: 59.8%
CCC(=O)N1CC2(C1)[C@@H](c1ccccc1)[C@H](CO)N2C(=O)c1cccnc1	active: 72.4%
Cn1ccc2c(-c3ccc(C(C)(C)C)cc3)cc3c(c21)C1CCC3C1 (configuration not stated)	active: 20.9%
C[C@H](O)C#Cc1cnc2c(c1)C(=O)N([C@H](C)CO)C[C@H](C)[C@@H](CN(C)C(=O)c1ccccc1)O2	inactive: -6.22%
O=C(COC(=O)c1ccc(OC(F)(F)F)cc1)NCCN1C(=O)CSC1=O	inactive: 4.69%
C/C(=N\NC(=O)c1ccccc1O)C1CC1	inactive: 3.73%
O=C(OCC(=O)N1CCc2ccccc21)c1cc(S(=O)(=O)N2CCOCC2)ccc1F	inconclusive: 24.7%
Cc1cc(Cl)c(S(=O)(=O)NC2CCCC2)cc1OCC(N)=O	inconclusive: 28.9%
COc1ccccc1Cn1c(C)c(C(=O)NCc2ccc(C#N)cc2)sc1=O	inconclusive: 20.5%
COc1cc(NC(=O)C2CCC(CNS(=O)(=O)c3csc(C(N)=O)c3)CC2)cc(OC)c1 (configuration not stated)	inactive: 4.27%
COc1ccc(S(=O)(=O)Nc2ccc3c(c2)CC(=O)N([C@@H](C)CO)C[C@H](C)[C@H](CN(C)C(=O)Nc2cccc4ccccc24)O3)cc1	inactive: 2.04%
CC(C)NC(=O)Nc1ccc2c(c1)CC(=O)N([C@H](C)CO)C[C@@H](C)[C@H](CN(C)Cc1ccc3c(c1)OCO3)O2	inconclusive: 32.4%
COc1ccc(-c2ccc3oc(-c4ccc(OC)cc4)c(C#CCO)c3c2)cc1	inactive: 11.2%
O=C(N[C@@H]1CC[C@@H](CCn2cc(Cc3ccccc3)nn2)O[C@H]1CO)c1cnccn1	inconclusive: 28.6%
CC(C)NC(=O)Nc1ccc2c(c1)C(=O)N([C@H](C)CO)C[C@H](C)[C@@H](CN(C)Cc1ccc(-c3ccccc3)cc1)O2	inactive: 1.76%
CC1CN(CCN2CC(C)N(C=O)CC2C)C(C)CN1C=O (configuration not stated)	inconclusive: 39.9%
Cc1ccc(C(=O)N/C(=C/c2ccco2)C(=O)NCc2ccco2)cc1	inactive: 10.5%
COc1ccc(NC(=O)Nc2cccc3c2O[C@H](CN(C)C(=O)Nc2ccc(C(F)(F)F)cc2)[C@H](C)CN([C@H](C)CO)C3=O)cc1	inconclusive: 66.1%
Cc1ccccc1NC(=O)c1c(C)nc(SCC(=O)OCc2ccccc2)c(C#N)c1-c1ccc(F)cc1	active: 20%

Structure (SMILES)	CPE inhibition
O=C(NCCCn1ccnc1)c1sc2cc([N+](=O)[O-])ccc2c1Cl	inconclusive: 39.5%
Nc1c(C(=O)c2ccccc2)sc2nsc(SCCN3CCCC3)c12	active: 57.2%
CC(=O)N/C(=C\c1ccccc1)C(=O)OCC(=O)NC1CCCC1	active: 21.3%
C[C@H]1CN([C@@H](C)CO)C(=O)c2cc(NC(=O)NC3CCCCC3)ccc2O[C@@H]1CN(C)C	inactive: 6.22%
CC(=O)N1[C@@H]2c3ccc(-c4ccc(F)cc4)c(=O)n3C[C@@H]2[C@@H](CO)[C@@H]1C(=O)N(C)C	inconclusive: 50.9%
COc1ccc2c(Cl)c(-c3nnc(SCC(N)=O)n3C)sc2c1	inactive: 1.44%
C[C@@H]1CN([C@@H](C)CO)C(=O)CCCn2nncc2CO[C@H]1CN(C)C(=O)NC1CCCCC1	inconclusive: 36.2%
Cc1cccc(OCC(=O)Nc2ccc(C(=O)c3ccc(C(=O)O)cc3)cc2)c1	inactive: -0.078%
Cc1noc(C)c1S(=O)(=O)N(C)C[C@@H]1Oc2ccc(NS(=O)(=O)c3ccc(F)cc3)cc2CC(=O)N([C@@H](C)CO)C[C@H]1C	inconclusive: 32.1%
Cc1ccc(S(=O)(=O)N(C)C[C@H]2OCCCC[C@@H](C)Oc3ccc(NS(=O)(=O)c4ccccc4)cc3C(=O)N([C@@H](C)CO)C[C@@H]2C)cc1	inactive: 5.95%
C[C@H]1CCCCO[C@H](CN(C)CC2CCCCC2)[C@@H](C)CN([C@@H](C)CO)C(=O)c2cc(NC(=O)c3ccncc3)ccc2O1	inactive: -3.45%
CC(=O)c1cccc(Nc2nc(-c3ccccc3)nc3ccccc23)c1	inconclusive: 32.7%
NNC(=O)COc1ccccc1[N+](=O)[O-]	inactive: -1.84%
CC(=O)c1ccc(N2CCN(C(=S)Nc3ccc(Cl)c(Cl)c3)CC2)cc1	active: 53.3%
CNC[C@@H]1OCCCC[C@@H](C)Oc2ccc(NC(=O)CCCN(C)C)cc2C(=O)N([C@@H](C)CO)C[C@H]1C	inconclusive: 27.9%
N#C[C@@H]1[C@@H](c2ccc(-c3cncnc3)cc2)[C@H](CO)N1C(=O)C1CCC1	inconclusive: 84.9%
COc1ccccc1C(=O)NC(=S)Nc1ccc(N2CCN(C(=O)c3ccco3)CC2)cc1	inconclusive: 21.1%
C[C@@H]1CN([C@@H](C)CO)C(=O)c2cc(-c3ccc(F)cc3)cnc2O[C@H]1CN(C)C(=O)CN(C)C	inconclusive: 29%
Cc1ccc(CN2CCN(C(=O)c3cccc4ccccc34)CC2)cc1	inactive: -2.14%
CCCNC(=O)C[C@@H]1CC[C@H]2[C@@H](COc3ccc(NC(=O)c4cccs4)cc3C(=O)N2C)O1	inconclusive: 62.2%
Nc1nonc1C(=O)NCCNC(=O)c1cccc(Cl)c1	inconclusive: 31.6%
COc1ccc(NC(=O)Nc2ccc3c(c2)C(=O)N([C@H](C)CO)C[C@H](C)[C@H](CN(C)S(=O)(=O)c2c(C)noc2C)OCCCC[C@H](C)O3)cc1	inconclusive: 56.9%
C[C@H](CO)N1C[C@H](C)[C@@H](CN(C)C(=O)Nc2ccc(C(F)(F)F)cc2)OCc2cnnn2CCCC1=O	inactive: 6.48%
O=C(Nc1cc(F)ccc1F)N[C@@H]1CC[C@@H](CCn2cc(C3CCCC3)nn2)O[C@H]1CO	inactive: -8.07%
